This data set has as its system mSWI/SNF complexes. As to the kind of experiment: mSWI/SNF complex purification with HA-tagged baits and mass spectrometry (peptide counts). More on the design: species or system human.
Where [1] appears, read: 293_HA-BRD7 bait purification, mass spectrometry, total peptide count per identified protein.
Setting [2] is: 293_HA-BRD7 bait purification, mass spectrometry, unique peptide count per identified protein.

B1: FAM83G (protein, UniProt A6ND36 2-823, looked up)
Protein FAM83G: AFSQVQCLDDNHVNWRSSESKPEFFYSEEQRLALEALVARGRDAFYEVLKRENIRDFLSELELKRILETIEVYDPGSEDPRGTGPSQGPEDNGVGDGEEASGADGVPIEAEPLPSLEYWPQKSDRSIPQLDLGWPDTIAYRGVTRASVYMQPPIDGQAHIKEVVRKMISQAQKVIAVVMDMFTDVDIFKDLLDAGFKRKVAVYIIVDESNVKYFLHMCERACMHLGHLKNLRVRSSGGTEFFTRSATKFKGALAQKFMFVDGDRAVCGSYSFTWSAARTDRNVISVLSGQVVEMFDRQFQELYLMSHSVSLKGIPMEKEPEPEPIVLPSVVPLVPAGTVAKKLVNPKYALVKAKSVDEIAKISSEKQEAKKPLGLKGPALAEHPGELPELLPPIHPGLLHLERANMFEYLPTWVEPDPEPGSDILGYINIIDPNIWNPQPSQMNRIKIRDTSQASAQHQLWKQSQDSRPRPEPCPPPEPSAPQDGVPAENGLPQGDPEPLPPVPKPRTVPVADVLARDSSDIGWVLELPKEEAPQNGTDHRLPRMAGPGHAPLQRQLSVTQDDPESLGVGLPNGLDGVEEEDDDDYVTLSDQDSHSGSSGRGPGPRRPSVASSVSEEYFEVREHSVPLRRRHSEQVANGPTPPPRRQLSAPHITRGTFVGPQGGSPWAQSRGREEADALKRMQAQRSTDKEAQGQQFHHHRVPASGTRDKDGFPGPPRYRSAADSVQSSTRNAGPAMAGPHHWQAKGGQVPRLLPDPGSPRLAQNARPMTDGRATEEHPSPFGIPYSKLSQSKHLKARTGGSQWASSDSKRRAQAPRDRKDP
With B1, under setting [1], the Total was 1. Under setting [2], the Unique was determined as 1.

B2: C6orf163 (protein, UniProt Q5TEZ5 1-329, looked up)
Uncharacterized protein …: MIRNSDYKNFVCCAVCNKIIPPAPFGKTFKRIHEYKPLKTRFYTHKDILDIGANILKKEEQFQEDILREHIAKAEAEVWAQANERQKQAVEKALEEANDRHKIEIQILKEEHQKDLQEVTAKTKTEMYQNMDDEMKREHLAAEQRMVHRIQRIMMECHREKVEAVEKARAEERHIAQEAIQAQKSKAVEEIVNTGVTVIKDEKTSVARLMREKEHEMSILYGIAQRQRQEEVQEVLQEAEKTHQATLGNMMDKLANTQGELLSIAKQLGIMTNWKDFLEEELQETRMAFQKYINYTFPKLSPGHADFILPERKKTPSNLVIKENKTTLD
Under setting [1], B2 displayed a Total of 1. This molecule showed a Unique under setting [2] of 1.

B3: ##CEBPZ (protein, UniProt Q03701 1-1054, looked up)
CCAAT/enhancer-binding …: MAAVKEPLEFHAKRPWRPEEAVEDPDEEDEDNTSEAENGFSLEEVLRLGGTKQDYLMLATLDENEEVIDGGKKGAIDDLQQGELEAFIQNLNLAKYTKASLVEEDEPAEKENSSKKEVKIPKINNKNTAESQRTSVNKVKNKNRPEPHSDENGSTTPKVKKDKQNIFEFFERQTLLLRPGGKWYDLEYSNEYSLKPQPQDVVSKYKTLAQKLYQHEINLFKSKTNSQKGASSTWMKAIVSSGTLGDRMAAMILLIQDDAVHTLQFVETLVNLVKKKGSKQQCLMALDTFKELLITDLLPDNRKLRIFSQRPFDKLEQLSSGNKDSRDRRLILWYFEHQLKHLVAEFVQVLETLSHDTLVTTKTRALTVAHELLCNKPEEEKALLVQVVNKLGDPQNRIATKASHLLETLLCKHPNMKGVVSGEVERLLFRSNISSKAQYYAICFLNQMALSHEESELANKLITVYFCFFRTCVKKKDVESKMLSALLTGVNRAYPYSQTGDDKVREQIDTLFKVLHIVNFNTSVQALMLLFQVMNSQQTISDRYYTALYRKMLDPGLMTCSKQAMFLNLVYKSLKADIVLRRVKAFVKRLLQVTCQQMPPFICGALYLVSEILKAKPGLRSQLDDHPESDDEENFIDANDDEDMEKFTDADKETEIVKKLETEETVPETDVETKKPEVASWVHFDNLKGGKQLNKYDPFSRNPLFCGAENTSLWELKKLSVHFHPSVALFAKTILQGNYIQYSGDPLQDFTLMRFLDRFVYRNPKPHKGKENTDSVVMQPKRKHFIKDIRHLPVNSKEFLAKEESQIPVDEVFFHRYYKKVAVKEKQKRDADEESIEDVDDEEFEELIDTFEDDNCFSSGKDDMDFAGNVKKRTKGAKDNTLDEDSEGSDDELGNLDDDEVSLGSMDDEEFAEVDEDGGTFMDVLDDESESVPELEVHSKVSTKKSKRKGTDDFDFAGSFQGPRKKKRNLNDSSLFVSAEEFGHLLDENMGSKFDNIGMNAMANKDNASLKQLRWEAERDDWLHNRDAKSIIKKKKHFKKKRIKTTQKTKKQRK
For B3, the Total under setting [1] was 1. This molecule also yielded a Unique under setting [2] of 1.

B4: ##NT5DC2 (protein, UniProt Q9H857 1-520, looked up)
5'-nucleotidase …: MRVESGSAQERGILLESLSTLLEKTTASHEGRAPGNRELTDLLPPEVCSLLNPAAIYANNEISLRDVEVYGFDYDYTLAQYADALHPEIFSTARDILIEHYKYPEGIRKYDYNPSFAIRGLHYDIQKSLLMKIDAFHYVQLGTAYRGLQPVPDEEVIELYGGTQHIPLYQMSGFYGKGPSIKQFMDIFSLPEMALLSCVVDYFLGHSLEFDQAHLYKDVTDAIRDVHVKGLMYQWIEQDMEKYILRGDETFAVLSRLVAHGKQLFLITNSPFSFVDKGMRHMVGPDWRQLFDVVIVQADKPSFFTDRRKPFRKLDEKGSLQWDRITRLEKGKIYRQGNLFDFLRLTEWRGPRVLYFGDHLYSDLADLMLRHGWRTGAIIPELEREIRIINTEQYMHSLTWQQALTGLLERMQTYQDAESRQVLAAWMKERQELRCITKALFNAQFGSIFRTFHNPTYFSRRLVRFSDLYMASLSCLLNYRVDFTFYPRRTPLQHEAPLWMDQLCTGCMKTPFLGDMAHIR
B4 registered a Total under setting [1] of 1. Besides, the Unique under setting [2] is 1.

B5: IKZF1 (protein, UniProt Q13422 1-519, looked up)
DNA-binding protein Ikaros: MDADEGQDMSQVSGKESPPVSDTPDEGDEPMPIPEDLSTTSGGQQSSKSDRVVASNVKVETQSDEENGRACEMNGEECAEDLRMLDASGEKMNGSHRDQGSSALSGVGGIRLPNGKLKCDICGIICIGPNVLMVHKRSHTGERPFQCNQCGASFTQKGNLLRHIKLHSGEKPFKCHLCNYACRRRDALTGHLRTHSVGKPHKCGYCGRSYKQRSSLEEHKERCHNYLESMGLPGTLYPVIKEETNHSEMAEDLCKIGSERSLVLDRLASNVAKRKSSMPQKFLGDKGLSDTPYDSSASYEKENEMMKSHVMDQAINNAINYLGAESLRPLVQTPPGGSEVVPVISPMYQLHKPLAEGTPRSNHSAQDSAVENLLLLSKAKLVPSEREASPSNSCQDSTDTESNNEEQRSGLIYLTNHIAPHARNGLSLKEEHRAYDLLRAASENSQDALRVVSTSGEQMKVYKCEHCRVLFLDHVMYTIHMGCHGFRDPFECNMCGYHSQDRYEFSSHITRGEHRFHMS
The molecule B5 displayed a Total under setting [1] of 1. Further, the Unique under setting [2] came to 1.

B6: NXN (protein, UniProt Q6DKJ4 2-435, looked up)
Nucleoredoxin: SGFLEELLGEKLVTGGGEEVDVHSLGARGISLLGLYFGCSLSAPCAQLSASLAAFYGRLRGDAAAGPGPGAGAGAAAEPEPRRRLEIVFVSSDQDQRQWQDFVRDMPWLALPYKEKHRKLKLWNKYRISNIPSLIFLDATTGKVVCRNGLLVIRDDPEGLEFPWGPKPFREVIAGPLLRNNGQSLESSSLEGSHVGVYFSAHWCPPCRSLTRVLVESYRKIKEAGQNFEIIFVSADRSEESFKQYFSEMPWLAVPYTDEARRSRLNRLYGIQGIPTLIMLDPQGEVITRQGRVEVLNDEDCREFPWHPKPVLELSDSNAAQLNEGPCLVLFVDSEDDGESEAAKQLIQPIAEKIIAKYKAKEEEAPLLFFVAGEDDMTDSLRDYTNLPEAAPLLTILDMSARAKYVMDVEEITPAIVEAFVNDFLAEKLKPEPI
Take B6: the Total under setting [1] is 1. The molecule further returned a Unique under setting [2] of 1.

B7: SLC25A4 (protein, UniProt P12235 2-298, looked up)
ADP/ATP translocase 1: GDHAWSFLKDFLAGGVAAAVSKTAVAPIERVKLLLQVQHASKQISAEKQYKGIIDCVVRIPKEQGFLSFWRGNLANVIRYFPTQALNFAFKDKYKQLFLGGVDRHKQFWRYFAGNLASGGAAGATSLCFVYPLDFARTRLAADVGKGAAQREFHGLGDCIIKIFKSDGLRGLYQGFNVSVQGIIIYRAAYFGVYDTAKGMLPDPKNVHIFVSWMIAQSVTAVAGLVSYPFDTVRRRMMMQSGRKGADIMYTGTVDCWRKIAKDEGAKAFFKGAWSNVLRGMGGAFVLVLYDEIKKYV
Turning to B7, the Total by setting is: (293_HA-BRD7: HA-BRD7 bait purification, total peptide count per co-purified protein) 16; (293_HA-DPF2 purification, total peptides) 1. This molecule also registered a Unique (293_HA-BRD7: HA-BRD7 bait purification, unique peptide count per co-purified protein) of 11 and a Unique (293_HA-DPF2 purification, unique peptides) of 1.

B8: UBA1 (protein, UniProt P22314 2-1058, looked up)
Ubiquitin-like …: SSSPLSKKRRVSGPDPKPGSNCSPAQSVLSEVPSVPTNGMAKNGSEADIDEGLYSRQLYVLGHEAMKRLQTSSVLVSGLRGLGVEIAKNIILGGVKAVTLHDQGTAQWADLSSQFYLREEDIGKNRAEVSQPRLAELNSYVPVTAYTGPLVEDFLSGFQVVVLTNTPLEDQLRVGEFCHNRGIKLVVADTRGLFGQLFCDFGEEMILTDSNGEQPLSAMVSMVTKDNPGVVTCLDEARHGFESGDFVSFSEVQGMVELNGNQPMEIKVLGPYTFSICDTSNFSDYIRGGIVSQVKVPKKISFKSLVASLAEPDFVVTDFAKFSRPAQLHIGFQALHQFCAQHGRPPRPRNEEDAAELVALAQAVNARALPAVQQNNLDEDLIRKLAYVAAGDLAPINAFIGGLAAQEVMKACSGKFMPIMQWLYFDALECLPEDKEVLTEDKCLQRQNRYDGQVAVFGSDLQEKLGKQKYFLVGAGAIGCELLKNFAMIGLGCGEGGEIIVTDMDTIEKSNLNRQFLFRPWDVTKLKSDTAAAAVRQMNPHIRVTSHQNRVGPDTERIYDDDFFQNLDGVANALDNVDARMYMDRRCVYYRKPLLESGTLGTKGNVQVVIPFLTESYSSSQDPPEKSIPICTLKNFPNAIEHTLQWARDEFEGLFKQPAENVNQYLTDPKFVERTLRLAGTQPLEVLEAVQRSLVLQRPQTWADCVTWACHHWHTQYSNNIRQLLHNFPPDQLTSSGAPFWSGPKRCPHPLTFDVNNPLHLDYVMAAANLFAQTYGLTGSQDRAAVATFLQSVQVPEFTPKSGVKIHVSDQELQSANASVDDSRLEELKATLPSPDKLPGFKMYPIDFEKDDDSNFHMDFIVAASNLRAENYDIPSADRHKSKLIAGKIIPAIATTTAAVVGLVCLELYKVVQGHRQLDSYKNGFLNLALPFFGFSEPLAAPRHQYYNQEWTLWDRFEVQGLQPNGEEMTLKQFLDYFKTEHKLEITMLSQGVSMLYSFFMPAAKLKERLDQPMTEIVSRVSKRKLGRHVRALVLELCCNDESGEDVEVPYVRYTIR
In turn, B8 displayed a Total under setting [1] of 1. This molecule also yielded a Unique under setting [2] of 1.
